Laboratory results: article PMC9127577
These are yes or no findings as the source states them, for the method shown. Binding seen in cells or lysates may run through a third protein. A yes stands for co-enrichment or nearness to the bait. Other partners may have been found.

Chains of the proteins cited; added tags and fusions are not shown. Lines headed by an entry give the natural chain unless they say otherwise; changes in a name come on top. A line that says so, or that is headed by a name, gives the form on record, which may keep a tag or linker.
UniProt Q9Y294: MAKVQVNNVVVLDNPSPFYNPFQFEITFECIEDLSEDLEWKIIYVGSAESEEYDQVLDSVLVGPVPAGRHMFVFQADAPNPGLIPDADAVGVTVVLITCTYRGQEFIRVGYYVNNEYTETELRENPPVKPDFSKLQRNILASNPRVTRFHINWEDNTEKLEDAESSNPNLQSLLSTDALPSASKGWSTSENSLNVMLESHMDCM
UniProt P54198: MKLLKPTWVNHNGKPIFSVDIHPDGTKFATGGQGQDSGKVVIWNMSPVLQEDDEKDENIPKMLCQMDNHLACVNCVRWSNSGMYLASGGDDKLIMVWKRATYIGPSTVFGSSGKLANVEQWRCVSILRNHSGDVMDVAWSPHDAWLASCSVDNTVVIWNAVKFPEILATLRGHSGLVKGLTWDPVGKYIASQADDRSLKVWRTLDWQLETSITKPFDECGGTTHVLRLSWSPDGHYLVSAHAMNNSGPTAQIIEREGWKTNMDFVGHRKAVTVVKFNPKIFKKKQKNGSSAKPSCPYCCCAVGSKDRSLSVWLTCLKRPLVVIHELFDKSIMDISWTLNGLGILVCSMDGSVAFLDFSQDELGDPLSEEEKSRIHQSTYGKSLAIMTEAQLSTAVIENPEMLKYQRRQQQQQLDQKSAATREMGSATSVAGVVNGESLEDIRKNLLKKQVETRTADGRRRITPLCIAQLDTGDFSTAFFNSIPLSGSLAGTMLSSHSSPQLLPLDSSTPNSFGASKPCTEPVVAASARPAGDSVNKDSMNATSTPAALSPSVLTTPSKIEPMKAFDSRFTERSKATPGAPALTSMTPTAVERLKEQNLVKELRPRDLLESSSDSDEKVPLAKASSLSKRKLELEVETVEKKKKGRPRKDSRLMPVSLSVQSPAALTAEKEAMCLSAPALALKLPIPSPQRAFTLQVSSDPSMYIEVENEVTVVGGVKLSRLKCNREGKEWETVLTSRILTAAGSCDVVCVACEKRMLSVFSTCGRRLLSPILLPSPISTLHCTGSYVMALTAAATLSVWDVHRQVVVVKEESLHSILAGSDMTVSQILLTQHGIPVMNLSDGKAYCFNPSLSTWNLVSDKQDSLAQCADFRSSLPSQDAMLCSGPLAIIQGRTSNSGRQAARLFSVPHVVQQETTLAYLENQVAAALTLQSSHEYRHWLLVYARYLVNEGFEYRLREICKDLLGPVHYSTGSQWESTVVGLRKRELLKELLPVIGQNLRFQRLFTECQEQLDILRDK
SFB-tagged endogenous RIF1 (replication timing regulatory factor 1), N-terminal knock-in (Q5UIP0-2, form named): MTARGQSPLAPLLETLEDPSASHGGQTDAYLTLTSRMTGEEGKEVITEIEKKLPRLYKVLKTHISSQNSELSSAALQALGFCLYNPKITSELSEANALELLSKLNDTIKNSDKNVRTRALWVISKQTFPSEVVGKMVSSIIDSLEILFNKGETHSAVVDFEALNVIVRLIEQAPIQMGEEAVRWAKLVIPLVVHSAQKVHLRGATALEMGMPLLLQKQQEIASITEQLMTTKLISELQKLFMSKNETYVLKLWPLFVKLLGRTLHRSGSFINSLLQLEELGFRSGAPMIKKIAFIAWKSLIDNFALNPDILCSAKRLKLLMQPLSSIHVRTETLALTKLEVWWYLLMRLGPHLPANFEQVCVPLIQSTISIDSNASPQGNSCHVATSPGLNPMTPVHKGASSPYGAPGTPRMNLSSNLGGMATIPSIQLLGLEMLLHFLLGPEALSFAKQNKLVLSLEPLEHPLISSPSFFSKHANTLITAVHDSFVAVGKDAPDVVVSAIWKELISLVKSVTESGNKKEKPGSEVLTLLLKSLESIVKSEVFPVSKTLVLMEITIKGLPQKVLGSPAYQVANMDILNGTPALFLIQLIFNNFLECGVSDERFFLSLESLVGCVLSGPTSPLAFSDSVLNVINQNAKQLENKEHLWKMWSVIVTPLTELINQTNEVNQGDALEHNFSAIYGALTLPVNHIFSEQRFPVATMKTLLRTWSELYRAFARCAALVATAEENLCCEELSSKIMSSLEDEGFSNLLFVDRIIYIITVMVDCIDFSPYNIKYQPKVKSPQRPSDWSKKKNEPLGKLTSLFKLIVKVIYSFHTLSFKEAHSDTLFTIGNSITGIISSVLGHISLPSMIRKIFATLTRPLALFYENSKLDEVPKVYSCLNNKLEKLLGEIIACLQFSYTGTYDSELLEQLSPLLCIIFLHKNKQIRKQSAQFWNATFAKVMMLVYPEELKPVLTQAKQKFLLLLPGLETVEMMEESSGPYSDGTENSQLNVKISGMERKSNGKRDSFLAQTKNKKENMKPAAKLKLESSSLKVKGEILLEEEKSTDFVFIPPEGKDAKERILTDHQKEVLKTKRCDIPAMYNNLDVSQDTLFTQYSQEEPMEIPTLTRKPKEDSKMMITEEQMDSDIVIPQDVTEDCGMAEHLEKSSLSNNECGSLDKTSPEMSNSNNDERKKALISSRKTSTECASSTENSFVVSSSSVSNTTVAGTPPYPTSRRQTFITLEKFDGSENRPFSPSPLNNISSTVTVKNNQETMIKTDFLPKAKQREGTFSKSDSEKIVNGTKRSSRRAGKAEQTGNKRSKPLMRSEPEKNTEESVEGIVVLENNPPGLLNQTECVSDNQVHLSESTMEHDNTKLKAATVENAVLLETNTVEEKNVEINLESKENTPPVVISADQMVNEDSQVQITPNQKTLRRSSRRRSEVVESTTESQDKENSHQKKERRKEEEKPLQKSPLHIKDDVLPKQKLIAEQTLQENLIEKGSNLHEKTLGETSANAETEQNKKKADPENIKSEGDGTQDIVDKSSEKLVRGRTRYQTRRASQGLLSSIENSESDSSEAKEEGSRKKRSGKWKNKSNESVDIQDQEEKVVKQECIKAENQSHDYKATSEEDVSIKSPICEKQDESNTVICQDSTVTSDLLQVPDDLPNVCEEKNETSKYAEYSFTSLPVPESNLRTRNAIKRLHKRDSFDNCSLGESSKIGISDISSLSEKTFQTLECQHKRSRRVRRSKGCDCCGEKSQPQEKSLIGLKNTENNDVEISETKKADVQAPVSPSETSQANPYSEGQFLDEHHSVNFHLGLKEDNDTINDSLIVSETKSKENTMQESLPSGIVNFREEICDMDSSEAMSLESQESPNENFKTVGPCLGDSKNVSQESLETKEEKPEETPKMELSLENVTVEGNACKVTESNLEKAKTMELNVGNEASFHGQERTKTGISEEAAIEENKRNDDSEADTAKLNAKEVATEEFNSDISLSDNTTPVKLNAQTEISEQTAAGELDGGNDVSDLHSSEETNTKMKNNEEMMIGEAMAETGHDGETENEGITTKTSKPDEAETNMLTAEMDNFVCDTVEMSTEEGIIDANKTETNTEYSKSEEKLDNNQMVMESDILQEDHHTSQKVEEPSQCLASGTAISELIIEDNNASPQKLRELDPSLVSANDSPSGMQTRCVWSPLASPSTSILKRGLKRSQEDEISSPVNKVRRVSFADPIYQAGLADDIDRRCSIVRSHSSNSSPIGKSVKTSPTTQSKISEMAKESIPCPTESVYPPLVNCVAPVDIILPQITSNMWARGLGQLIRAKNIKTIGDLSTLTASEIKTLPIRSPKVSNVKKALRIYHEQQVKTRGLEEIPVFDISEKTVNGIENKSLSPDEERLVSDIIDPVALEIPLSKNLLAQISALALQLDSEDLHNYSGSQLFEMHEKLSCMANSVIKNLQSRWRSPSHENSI
UniProt Q9NVP2: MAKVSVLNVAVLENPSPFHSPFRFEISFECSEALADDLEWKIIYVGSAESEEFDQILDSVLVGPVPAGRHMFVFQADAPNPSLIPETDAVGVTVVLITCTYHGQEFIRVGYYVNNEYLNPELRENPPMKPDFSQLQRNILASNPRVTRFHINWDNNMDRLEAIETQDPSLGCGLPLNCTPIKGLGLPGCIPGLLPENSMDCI
UniProt P62140: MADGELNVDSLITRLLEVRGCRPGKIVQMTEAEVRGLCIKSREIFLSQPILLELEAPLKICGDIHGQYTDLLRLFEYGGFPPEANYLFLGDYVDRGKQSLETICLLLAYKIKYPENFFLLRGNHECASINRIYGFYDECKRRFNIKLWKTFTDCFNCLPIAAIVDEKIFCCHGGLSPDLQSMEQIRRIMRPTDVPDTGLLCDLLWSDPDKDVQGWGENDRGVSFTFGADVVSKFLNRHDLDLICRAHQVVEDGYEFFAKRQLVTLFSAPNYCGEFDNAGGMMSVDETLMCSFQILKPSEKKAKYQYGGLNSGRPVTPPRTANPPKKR
UniProt P62136: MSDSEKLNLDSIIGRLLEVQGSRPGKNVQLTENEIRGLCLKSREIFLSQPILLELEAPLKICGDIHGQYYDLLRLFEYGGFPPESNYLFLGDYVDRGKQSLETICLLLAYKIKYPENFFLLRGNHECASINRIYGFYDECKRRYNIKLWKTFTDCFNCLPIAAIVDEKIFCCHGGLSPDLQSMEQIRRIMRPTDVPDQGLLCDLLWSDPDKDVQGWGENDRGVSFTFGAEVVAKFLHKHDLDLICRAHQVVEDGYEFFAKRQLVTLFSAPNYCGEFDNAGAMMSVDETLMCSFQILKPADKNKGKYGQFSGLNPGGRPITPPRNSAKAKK
UniProt Q12888: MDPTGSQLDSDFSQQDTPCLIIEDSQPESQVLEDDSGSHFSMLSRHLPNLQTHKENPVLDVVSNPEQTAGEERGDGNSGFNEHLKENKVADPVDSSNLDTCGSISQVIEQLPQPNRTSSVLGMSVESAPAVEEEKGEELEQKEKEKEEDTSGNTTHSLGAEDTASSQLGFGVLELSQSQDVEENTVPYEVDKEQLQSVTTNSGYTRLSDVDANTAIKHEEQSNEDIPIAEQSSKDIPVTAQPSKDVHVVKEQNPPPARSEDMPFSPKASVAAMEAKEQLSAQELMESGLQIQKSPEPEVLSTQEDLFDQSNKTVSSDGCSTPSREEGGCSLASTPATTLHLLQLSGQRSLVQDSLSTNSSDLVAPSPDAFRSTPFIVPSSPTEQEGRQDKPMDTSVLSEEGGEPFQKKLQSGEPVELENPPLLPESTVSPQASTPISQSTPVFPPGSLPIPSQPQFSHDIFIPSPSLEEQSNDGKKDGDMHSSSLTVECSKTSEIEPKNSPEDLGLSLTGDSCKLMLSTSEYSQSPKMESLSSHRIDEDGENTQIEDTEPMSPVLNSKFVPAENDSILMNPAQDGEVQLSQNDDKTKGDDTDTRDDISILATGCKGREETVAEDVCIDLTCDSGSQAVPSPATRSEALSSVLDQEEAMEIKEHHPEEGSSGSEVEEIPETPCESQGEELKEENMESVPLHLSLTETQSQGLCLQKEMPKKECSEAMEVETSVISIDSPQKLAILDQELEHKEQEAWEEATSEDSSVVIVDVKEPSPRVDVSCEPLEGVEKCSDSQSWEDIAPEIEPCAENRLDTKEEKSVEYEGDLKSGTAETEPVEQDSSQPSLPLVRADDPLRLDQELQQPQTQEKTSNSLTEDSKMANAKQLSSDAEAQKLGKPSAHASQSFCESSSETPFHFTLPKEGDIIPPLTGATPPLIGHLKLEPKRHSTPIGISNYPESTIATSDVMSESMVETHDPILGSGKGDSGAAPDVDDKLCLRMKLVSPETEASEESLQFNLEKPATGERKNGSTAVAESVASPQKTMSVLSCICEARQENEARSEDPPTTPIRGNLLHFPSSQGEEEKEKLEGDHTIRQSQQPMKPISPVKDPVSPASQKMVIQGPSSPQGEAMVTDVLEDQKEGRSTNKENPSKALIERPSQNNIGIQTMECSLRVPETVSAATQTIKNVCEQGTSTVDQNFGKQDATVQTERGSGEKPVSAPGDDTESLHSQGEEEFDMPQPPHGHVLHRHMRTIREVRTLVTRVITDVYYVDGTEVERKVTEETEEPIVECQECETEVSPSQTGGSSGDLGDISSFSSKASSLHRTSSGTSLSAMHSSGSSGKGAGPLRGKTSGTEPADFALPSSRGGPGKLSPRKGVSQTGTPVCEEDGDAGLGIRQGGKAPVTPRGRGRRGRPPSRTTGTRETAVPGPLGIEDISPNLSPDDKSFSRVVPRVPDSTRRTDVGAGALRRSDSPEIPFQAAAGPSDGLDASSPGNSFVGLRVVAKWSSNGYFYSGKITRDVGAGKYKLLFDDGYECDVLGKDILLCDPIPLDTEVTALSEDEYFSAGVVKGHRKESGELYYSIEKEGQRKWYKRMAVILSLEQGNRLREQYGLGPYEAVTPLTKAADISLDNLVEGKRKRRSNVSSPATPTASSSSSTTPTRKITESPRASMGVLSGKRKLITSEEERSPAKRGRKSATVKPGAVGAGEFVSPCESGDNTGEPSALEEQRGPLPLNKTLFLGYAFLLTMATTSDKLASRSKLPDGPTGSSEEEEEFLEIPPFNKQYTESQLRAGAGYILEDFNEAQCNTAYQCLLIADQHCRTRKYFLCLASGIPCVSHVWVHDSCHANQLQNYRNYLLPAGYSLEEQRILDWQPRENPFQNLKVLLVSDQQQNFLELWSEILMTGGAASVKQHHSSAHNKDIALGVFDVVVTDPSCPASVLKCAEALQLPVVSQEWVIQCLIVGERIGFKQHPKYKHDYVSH

Each substance was assayed against SFB-tagged ASF1A, full length (human) (UniProt Q9Y294) (assay: affinity purification with mass spectrometry; tandem affinity purification (streptavidin beads, biotin elution, S-protein beads) of overexpressed N-terminal SFB-tagged ASF1A or ASF1B from 293T whole cell lysates; NETN buffer with turbonuclease; 4 °C).

binding, binds:
HIRA (from UniProt P54198 1-1017)
endogenous RIF1 (replication timing regulatory factor 1) (from UniProt Q5UIP0-2 1-2446)

Each substance was assayed against SFB-tagged ASF1B, full length (human) (UniProt Q9NVP2) in the same assay as above.

binding, binds:
endogenous RIF1 (replication timing regulatory factor 1) (from UniProt Q5UIP0-2 1-2446)

These substances were tested against SFB-tagged endogenous RIF1 (replication timing regulatory factor 1), N-terminal knock-in (human) (UniProt Q5UIP0) (assay: affinity purification with mass spectrometry; tandem affinity purification (streptavidin beads, biotin elution, S-protein beads) of SFB-tagged endogenous RIF1 from 293T knock-in cells; NETN buffer (250 mM NaCl, 1 mM EDTA, 20 mM Tris-HCl pH 8.0, 0.5% NP-40); soluble and chromatin fractions; 4 °C).

binding, binds:
PPP1CC (PP1 phosphatase isoform) (from UniProt P36873 1-323) (enzyme)
PPP1CB (PP1 phosphatase isoform) (from UniProt P62140 1-327) (enzyme)
Tousled-like kinase TLK1 (from UniProt Q9UKI8 1-766) (enzyme)
endogenous ASF1A (from UniProt Q9Y294 1-204)
PPP1CA (PP1 phosphatase isoform) (from UniProt P62136 1-330) (enzyme)
TP53BP1 (from UniProt Q12888 1-1972)
